Earlier results, collected in patent US11890361B2, “Oral care composition comprising cannabinoids” (APIRX Pharmaceutical USA, LLC, priority 2014, dated 2024).
Some entries share one result that the patent states for a list of compounds. Some ranges recur; such a range may be that of the whole group of compounds.

Tested on: various Staphylococcus aureus strains

Row | Structure (SMILES) | minimum inhibitory concentration [µg/mL]
1 | CCCCCc1cc(O)c2c(c1)OC(C)(C)[C@@H]1CCC(C)=C[C@@H]21 [THC, (−)-(6aR,10aR)-6,6,9-trimethyl-3-pentyl-6a,7,8,10a-tetrahydro-6H-benzo[c]chromen-1-ol] | 0.5 to 2
2 | CCCCCc1cc(O)c(C/C=C(\C)CCC=C(C)C)c(O)c1 [CBG, cannabigerol] | 0.5 to 2
